## Results of single-concentration screens

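Whole-parasite assay of Trypanosoma brucei over 72 hours; the read-out is not stated. Concentration: 30 µM. Higher reads as stronger inhibition (inferred: compounds with an IC50 in retests scored well above the rest). Values scatter widely below zero; nearly all retest evidence comes from the higher of the two concentrations used. Size under these conditions: about 64,000 compounds, about 940 of them at 50% or above in at least one test.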

Results are given as percent effect.
The record does not define 0% and 100%; most values in the screen are far below 50% and negative numbers occur (in some assays of this library far below -100).
Compounds were drawn at random from those tested, without regard to their results.

| structure | effect |
|---|---|
| `c1cc(C2CCN(c3cnccn3)CC2)ccn1` | -1.695 |
| `CCOc1ccc(NC(=O)N(CCN(C)C)C(C)c2ccncc2)cc1` (centres undefined) | -17.8 |
| `O=C(O)C(F)(F)F.[H][C@@]12CN(Cc3cc[nH]n3)C[C@]1([H])OCCN2c1cnccn1` | -12.57 |
| `COC(=O)c1ccc(N2CCN(C(=O)c3cc(C)on3)C(C)C2)cc1` (centres undefined) | -3.348 |
| `O=C(Cc1c(F)cccc1Cl)N1CCC(Nc2cccnn2)CC1` | 9.181 |
| `CCOCC(O)c1nc2c([nH]1)CC(C)(C)CNC2=O` (centres undefined) | -45.93 |
| `COc1cc(NC(=O)N2CCCC2c2ccco2)cc(OC)c1` (centres undefined) | -13.56 |
| `Cn1ncc2cnn(CC(O)COc3cccc4[nH]ccc34)c2c1=O` (centres undefined) | -6.779 |
| `CCN(Cc1c(F)cccc1Cl)c1cc(C2CCNCC2)nc(C)n1` | 88.22 |
| `COCc1ccccc1C(=O)N1CCCC(n2nc(C)cc2C)C1` (centres undefined) | 2.943 |
| `COCC1CN(C(C)=O)CCN(c2cc(C)ncn2)C1` (centres undefined) | -10.1 |
| `OCCN1CCN(CC2(O)CCCCC2)CC1` | 1.695 |
| `CCCNC(=O)N1CCC(Oc2cc(C)ccc2F)(C(=O)O)CC1` | -11.78 |
| `CCc1nc(C2CCCN2C(=O)CCCOc2cccc(F)c2)no1` (centres undefined) | -3.748 |
| `O=C(CCC1CCCO1)NCCN1CCCCC1` (centres undefined) | -21.5 |
| `O=C(Nc1ccccc1)c1cc2n(n1)CCCN(C(=O)N1CCCC1)C2` | 8.398 |
| `CC(Cc1cccc(F)c1)NCc1cnc(N2CCN(C)CC2)nc1` (centres undefined) | 94.94 |
| `NC(=O)CN1CCC(NCc2cc(C(F)(F)F)ccc2Cl)CC1` | 3.281 |
| `Cc1cccc(-c2ccc3nc(C4CCN(CC5CC5)CC4)nn3c2)c1.O=C(O)C(F)(F)F` | -36.36 |
| `N#Cc1ccc(F)c(CNC(=O)NCCC(=O)NC2CCCC2)c1` | 5.13 |
| `Cc1n[nH]c(C2CN(CC(=O)NCCC3=CCCCC3)CCO2)n1` (centres undefined) | -21.86 |
| `Cc1ccc2c(c1)SCC(=O)N2CC(=O)N1CCC[C@H]1c1nc(C)no1` | -14.29 |
| `COCC(=O)N1CCN(C(=O)CCc2ccsc2)CC1` | 1.242 |
| `COc1ccc(Nc2nc3c(C)nn(C)c3c(=O)n2C)c(OC)c1` | 8.852 |
| `O=C1CCC(=O)N1CCN1CCC(=Cc2ccccc2)CC1` | -3.594 |
| `COC(=O)CCC(=O)N1CCc2[nH]nc(-c3ccc(F)c(F)c3)c2C1` | 21.71 |
| `N#Cc1cc(NC(=O)c2ccncc2)ccc1N1CCC(O)CC1` | -1.053 |
| `Cc1ccccc1OCCn1cnc2oc(C)c(C(=O)O)c2c1=O` | -27.34 |
| `CC(=O)c1cc(C(=O)N2Cc3ccccc3OC3(CCOCC3)C2)cs1` | -70.17 |
| `Cc1cc(C)nc(CNC(=O)C(c2cccnc2)N2CCOCC2)n1` (centres undefined) | -12.6 |
| `O=C(c1ccncc1F)N1CCN(CC2CC2)c2ncccc2C1` | -31.32 |
| `Cc1ccc(CNC(=O)c2cc(C)n(C)n2)o1` | -9.077 |
| `CC(C)CN(Cc1nc2c(cnn2C)c(=O)[nH]1)C(C)C` | -20.8 |
| `[H][C@@]12C[C@H](C(=O)Nc3cccnc3)[C@@]([H])(CN(S(=O)(=O)CC(C)C)C1)O2` | -5.396 |
| `CN(C(=O)c1cccnc1)C1CCCN(CCc2ccccc2)C1` (centres undefined) | -58.25 |
| `Cc1nc(C2CCCN2C(=O)Cc2ccc(F)cc2)ncc1C(N)=O` (centres undefined) | -5.728 |
| `O=C(NCCN1CCOCC1)c1nc2ccccc2c(=O)[nH]1` | -23.56 |
| `CCN1CCCC(CNC(=O)C2(c3cccc(Cl)c3)CC2)C1` (centres undefined) | 12.7 |
| `CCc1n[nH]c(C2CN(C(=O)CCn3ccccc3=O)CCO2)n1` (centres undefined) | 7.899 |
| `O=C(N[C@@H]1CC[C@@H](n2ccnc2)[C@@H]1O)c1cc2c(s1)CCC2` | 11.43 |
| `Cc1ccc(CN2CCC3(CC2)C(=O)N(CCO)CCN3C)o1.O=C(O)C(F)(F)F.O=C(O)C(F)(F)F` | -17.97 |
| `CSc1nccc(N2CCC3(CCCN(CC4CC4)C3)C2)n1` (centres undefined) | -55.52 |
| `COc1ccc(C2CCCN2C(=O)NCCCn2ccnc2)cc1` (centres undefined) | -18.05 |
| `O=C(NCCN1CCOCC1)C1=NOC2(CCN(Cc3nccs3)C2)C1` (centres undefined) | 9.252 |
| `[H][C@@]12CN(C)CCO[C@]1([H])CN(S(=O)(=O)c1ccc(OC)cc1)C2` | -19.11 |
| `O=C(O)C(F)(F)F.[H][C@@]12CCN(CC3CC3)[C@@]1([H])CCN2S(=O)(=O)c1cccs1` | -19.62 |
| `COc1c(C2CCCN2C(=O)c2nccnc2N)c(C)nn1C` (centres undefined) | 7.754 |
| `CC(C)C(C(=O)N1CCC(N(C)c2cccnn2)CC1)n1cncn1` (centres undefined) | -20.48 |
| `Cc1nc(-c2ccc(CC(=O)N3CCNC(=O)C3)cc2)cs1` | -34.64 |
| `Cn1nnnc1SCCNC(=O)c1c[nH]nc1C1CCCCC1` | -17.32 |
| `O=C(O)C(F)(F)F.[H][C@@]12CCN(Cc3sccc3C)C[C@]1(C(=O)N1CCCO1)CCO2` | -14.02 |
| `Cc1nn(C)c(Cl)c1C1CCCN1CCc1ccccn1` (centres undefined) | -7.283 |
| `CC(NC(=O)Cc1cccs1)(C(N)=O)c1cccc(Cl)c1` (centres undefined) | -13.1 |
| `CCc1nc2n(n1)CC(NCc1nc(-c3cccnc3)no1)CC2` (centres undefined) | 7.609 |
| `Cc1csc(NC(=O)c2cccnc2N2CCOCC2)n1` | 26.98 |
| `Cc1cnn(Cc2ccc(NC(=O)N3CCCC3)cc2)c1` | 6.26 |
| `Cc1ncc2c(n1)CCCC2NC(=O)c1ccccc1Cn1cncn1` (centres undefined) | -0.5608 |
| `O=C(NCC(Cc1cccc(F)c1)N1CCCC1=O)c1ccccc1` (centres undefined) | -72.01 |
| `[H][C@@]12COCC[C@]1([H])C[C@H](N(CC(=O)NC)S(=O)(=O)c1ccccc1)C2` | -17.46 |
| `CN(C)CCn1ccnc1C1CCN(C(=O)CCc2ccncc2)CC1` | 9.929 |
| `CCN(CC(C)C#N)C(=O)CSc1ccc(C(F)(F)F)cn1` (centres undefined) | -18.45 |
| `COC(=O)c1sc2cccc(F)c2c1CNC(=O)C1CCOC1` (centres undefined) | 6.788 |
| `CCn1cc(CN(C)C(=O)C(c2ccccc2C)N(C)C)cn1` (centres undefined) | -10.03 |
| `[H][C@]12CN(C(C)=O)CCN1C(=O)N(Cc1ccc(F)cc1)C2` | -3.7 |
| `Cn1c(=O)n(C)c2cc(NS(=O)(=O)Cc3ccccc3)ccc21` | -0.9273 |
| `Cc1nc(CCNC(=O)NC(C)Cn2cccn2)cs1` (centres undefined) | -25.47 |
| `Cc1noc(C(C)NC(=O)[C@@H](C)NC(=O)OC(C)(C)C)n1` (some centres undefined) | 3.982 |
| `Cc1ncsc1C(=O)NCCCN1CCCCCC1=O` | -36.89 |
| `COc1ccc(C[C@H]2CN(c3nnc(C)s3)CC[C@@H]2OC)cc1.O=C(O)C(F)(F)F` | 20 |
| `CCSc1cc(C(=O)NCC(C)(C)N(C)C)ccn1` | -23.93 |
| `COc1ncc(NS(=O)(=O)c2ccc(F)cc2F)cn1` | -15.91 |
| `Cc1ccsc1CN(CCN(C)C)Cc1ccccn1` | 1.636 |
| `CCn1nc2c(cc1=O)CN(CCCOc1ccc(C#N)cc1)CC2` | -21.31 |
| `COc1cc(OC)cc(C2CC(=O)Nc3c2nc2n3CCCC2)c1` (centres undefined) | -28.12 |
| `CCN(CC)C(=O)Nc1ccc(C(=O)N(C)C)c(C)c1` | 5.152 |
| `O=C(O)c1ccc(=O)n(CC(c2ccc(Cl)cc2)N2CCCCCC2)c1` (centres undefined) | -27.06 |
| `CC(C)(C)c1nnc(CSc2ccccn2)o1` | -29.66 |
| `O=S1(=O)COCCN1CCOc1ccc(F)cc1` | -37.46 |
| `COc1ccc(C[C@H]2CN(c3cc(OC)ncn3)CC[C@@H]2OC)cc1.O=C(O)C(F)(F)F` | 7.112 |
| `O=C(O)C(F)(F)F.[H][C@@]12COC[C@@H](C(=O)N3CCCCO3)[C@]1([H])CN(c1ccncn1)C2` | -104.1 |
| `O=C1CC(c2ccccc2F)c2c(n(C3CCCC3)[nH]c2=O)N1` (centres undefined) | -1.714 |
| `O=C(COCCc1ccccc1)N1CCCC(n2cccn2)C1` (centres undefined) | -7.332 |
| `Cc1cc(C(=O)N2C[C@H](c3ccccc3)[C@@H](N)C2)c2ccc(F)cc2n1` | -36.18 |
| `CC(=O)NCC(=O)N(CCc1ccccc1)C1CCOC1` (centres undefined) | -26.22 |
| `Cc1nc(Nc2nccs2)cc(C2CCCN2C2CCOCC2)n1` (centres undefined) | 18.07 |
| `CC(C)C(=O)N1CCCC1C(=O)Nc1cc(C(F)(F)F)ccc1F` (centres undefined) | 5.837 |
| `Cc1ccc(CN(CCCN2CCOCC2)Cc2cncn2C)o1.O=C(O)CC(O)(CC(=O)O)C(=O)O` | -16.84 |
| `Cc1nsc(C(=O)N2CCc3ccccc3C2)n1` | 17.01 |
| `COc1ccc(C2CC(=O)NCc3nc(N(C)C)sc32)c(O)c1` (centres undefined) | 4.588 |

The last 9 entries again:

* O=C1CC(c2ccccc2F)c2c(n(C3CCCC3)[nH]c2=O)N1 (centres undefined) : -1.714%
* O=C(COCCc1ccccc1)N1CCCC(n2cccn2)C1 (centres undefined) : -7.332%
* Cc1cc(C(=O)N2C[C@H](c3ccccc3)[C@@H](N)C2)c2ccc(F)cc2n1 : -36.18%
* CC(=O)NCC(=O)N(CCc1ccccc1)C1CCOC1 (centres undefined) : -26.22%
* Cc1nc(Nc2nccs2)cc(C2CCCN2C2CCOCC2)n1 (centres undefined) : 18.07%
* CC(C)C(=O)N1CCCC1C(=O)Nc1cc(C(F)(F)F)ccc1F (centres undefined) : 5.837%
* Cc1ccc(CN(CCCN2CCOCC2)Cc2cncn2C)o1.O=C(O)CC(O)(CC(=O)O)C(=O)O : -16.84%
* Cc1nsc(C(=O)N2CCc3ccccc3C2)n1 : 17.01%
* COc1ccc(C2CC(=O)NCc3nc(N(C)C)sc32)c(O)c1 (centres undefined) : 4.588%

Data taken from ChEMBL document CHEMBL3988442, “University of Dundee, Small-Polar-MMV Screening Library” (2021).